{"source": "PubChem BioAssay AID1347076", "about": "(National Center for Advancing Translational Sciences (NCATS), 2019)", "note": "The campaign covered roughly 400,000 compounds. About 13,000 (3.2%) were called active. Inconclusive results, whose numbers are uncertain, are shown with a selection of clear calls. The call rests on the fitted dose curve; in most records, active means well fitted cell-killing curve with a large enough effect; inconclusive means small, poorly fitted or top-dose-only effect, or effect the other way; inactive means flat fitted curve, though single readings scatter. Potencies of inconclusive entries are doubtful fits and often do not repeat. Potency means the concentration at half of the fitted maximal effect."}
{"assay": "qHTS assay for MDR1-selective chemotherapeutics: Primary screen using the drug-selected MDR subline cells KB-V1; further: nearly all actives have a fitted effect of over 60% in size", "details": "KB-V1 MDR cells viability, CellTiter-Glo, 72 h; series mostly up to 46.1 µM", "how_it_was_run": "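Compound-treated KB-V1 multidrug-resistant cells, 72 h, 37 degrees C; viability by CellTiter-Glo. Fitted qHTS curves give the values.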"}
{"smiles": "CCCCN(C(=O)COC(=O)CSc1ccc([N+](=O)[O-])cc1)c1c(N)n(CCC)c(=O)[nH]c1=O", "Potency": "inactive"}
{"smiles": "O=C1CC2(CCCC2)CC(=O)N1CCCCN1CCN(c2ncccn2)CC1", "Potency": "inconclusive: 5.8 µM [cytotoxic, full curve]"}
{"smiles": "COc1ccc(Cc2noc(CN(C)CC3CCN(Cc4ccccc4)CC3)n2)cc1OC", "Potency": "inconclusive: 5.8 µM [cytotoxic, partial curve]"}
{"smiles": "CC(=O)Nc1ccc(C(=O)OCCc2ccccc2)cc1", "Potency": "inactive"}
{"smiles": "Cc1oc2ccc(O)c(CN3CCCC(C)C3)c2c1C(=O)Nc1ccccc1", "note": "(configuration not stated)", "Potency": "inactive"}
{"smiles": "O=C(CN(Cc1cccs1)C(=O)CNS(=O)(=O)c1ccccc1)NC1CCCC1", "Potency": "inactive"}
{"smiles": "CC(=O)Nc1ccc(-c2ccnc3c2CC(C)(C(=O)Nc2ccc(Cl)cc2)O3)cc1", "note": "(configuration not stated)", "Potency": "inconclusive: 23.1 µM [cytotoxic, single point]"}
{"smiles": "CC(=O)c1ccc(N2CCC(C)CC2)c(F)c1", "Potency": "inconclusive: 20.6 µM [rising, single point]"}
{"smiles": "CCc1cc(Cn2nc(-c3ccccc3)cc2C(=O)NCC2CC2)on1", "Potency": "inactive"}
{"smiles": "CC(C)NC(=S)N=Nc1c(O)[nH]c2ccc(C(C)C)cc12", "Potency": "inconclusive: 13 µM [rising, partial curve, poor fit]"}
{"smiles": "CCOc1ccc(NC(=O)CN(C)C(=O)c2ccc(OCc3ccccc3)c(OC)c2)cc1OCC", "Potency": "inconclusive: 8.2 µM [cytotoxic, partial curve]"}
{"smiles": "N#Cc1ccccc1NC(=O)CSC1=Nc2ccccc2C2CC=NN12", "note": "(configuration not stated)", "Potency": "inactive"}
{"smiles": "COc1ccc(Cn2nc(C)n(N(C)c3ncc(C(F)(F)F)cc3Cl)c2=O)cc1", "Potency": "inconclusive: 23.1 µM [cytotoxic, single point]"}
{"smiles": "CCc1nc(SCC(=O)c2ccc3c(c2)OCCO3)c2ccccc2n1", "Potency": "inconclusive: 16.4 µM [cytotoxic, single point]"}
{"smiles": "COc1ccc(CNC(=O)CS(=O)(=O)c2cccc3nsnc23)cc1", "Potency": "inactive"}
{"smiles": "Cc1ccc(Nc2cc(C)nc3c(C)cccc23)cc1", "Potency": "active: 8.2 µM"}
{"smiles": "CCOc1cc(C2C(C(=O)OC)=C(C)NC3=C2C(=O)c2ccccc23)cc(Br)c1OCC", "note": "(configuration not stated)", "Potency": "inconclusive: 29.1 µM [cytotoxic, single point]"}
{"smiles": "COc1ccc(/C=C/C(=O)Nc2cccc(S(=O)(=O)N3CCCC3)c2)cc1OC", "Potency": "inconclusive: 16.4 µM [cytotoxic, single point]"}
{"smiles": "CCn1c(SCC(=O)OC)nc2cc(S(=O)(=O)N3CCOCC3)ccc21", "Potency": "inactive"}
{"smiles": "CC1CC1C(=O)OCC(=O)NC(=O)c1ccc(C(C)(C)C)cc1", "note": "(configuration not stated)", "Potency": "inconclusive: 20.6 µM [rising, single point]"}
{"smiles": "CC1=C(C(=O)OC2CCCCCC2)C(c2ccc(Cl)cc2)CC(=O)N1", "note": "(configuration not stated)", "Potency": "inactive"}
{"smiles": "O=C(NC1CCCCCCC1)C1CCN(S(=O)(=O)N2CCCC2)CC1", "Potency": "inconclusive: 13 µM [cytotoxic, partial curve]"}
{"smiles": "COc1cccc(N2CCN(C(=O)CC(NC(=O)c3ccccc3)c3ccccc3)CC2)c1", "note": "(configuration not stated)", "Potency": "inactive"}
{"smiles": "OCCN1CCN(CCCN2c3ccccc3CCc3ccccc32)CC1", "Potency": "inconclusive: 29.1 µM [cytotoxic, single point]"}
{"smiles": "Cn1c(SCC(=O)NC2CCCc3ccccc32)nnc1C1CC1", "note": "(configuration not stated)", "Potency": "inactive"}
{"smiles": "O=C1c2ccc3c4c(ccc(c24)C(=O)N1CCCCO)C(=O)N(CCCCO)C3=O", "Potency": "inconclusive: 29.1 µM [cytotoxic, single point]"}
{"smiles": "COc1ccccc1NC(=S)NNC(=O)c1ccncc1", "Potency": "inactive"}
{"smiles": "CCc1nc2ccc(C(=O)NCc3ccc4c(c3)OCO4)cn2c1N(CC)CCOC", "Potency": "inactive"}
{"smiles": "O=c1cc(-c2ccccc2)nc2c(-c3ccccc3)c(C(F)(F)F)[nH]n12", "Potency": "inconclusive: 18.4 µM [cytotoxic, single point]"}
{"smiles": "Cc1cc(NC(=O)CCC(=O)N(Cc2ccco2)C(C(=O)NC2CCCCC2)c2cccs2)no1", "note": "(configuration not stated)", "Potency": "inconclusive: 16.4 µM [cytotoxic, single point]"}
{"smiles": "CC(C)(C)NC(=O)NC(=O)COC(=O)c1cccc(OC(F)F)c1", "Potency": "inactive"}
{"smiles": "O=C(CN(C(=O)CCC(=O)Nc1nccs1)c1ccc(F)cc1)NCc1ccco1", "Potency": "inconclusive: 10.3 µM [rising, partial curve, poor fit]"}
{"smiles": "COc1ccc(-c2nc3ccccc3o2)cc1NC(=O)c1ccc(-c2cccc(Cl)c2C)o1", "Potency": "inactive"}
{"smiles": "CC(=O)Nc1ccc(S(=O)(=O)NCC2CCCO2)cc1", "note": "(configuration not stated)", "Potency": "inconclusive: 23.1 µM [rising, single point]"}
{"smiles": "N#C/C(=C(\\O)Cc1ccccc1)c1nc2ccccc2[nH]1", "Potency": "inactive"}
{"smiles": "CN(Cc1cccs1)C(=O)CSc1nnnn1C", "Potency": "inconclusive: 20.6 µM [rising, single point]"}
{"smiles": "Cc1ccc(S(=O)(=O)N2CCCCC2C(=O)N2CCN(Cc3ccccc3)CC2)cc1", "note": "(configuration not stated)", "Potency": "active: 4.61 µM"}
{"smiles": "O=C1NC(Cc2ccc(O)cc2)c2nc3ccc(Br)cc3c(=O)n2-c2cc3ccccc3cc21", "note": "(configuration not stated)", "Potency": "inconclusive: 29.1 µM [cytotoxic, single point]"}
{"smiles": "COc1cc(-c2nc(CN3CCN(c4ncccn4)CC3)c(C)o2)ccc1F", "Potency": "inconclusive: 18.4 µM [cytotoxic, single point]"}
{"smiles": "Cc1c(CCC(=O)NCCCN2CCCC2=O)c(=O)oc2cc(O)ccc12", "Potency": "inconclusive: 29.1 µM [rising, single point]"}
{"smiles": "O=C(CCc1nc(-c2ccccc2Cl)no1)Nc1cccnc1", "Potency": "inconclusive: 29.1 µM [cytotoxic, single point]"}
{"smiles": "Cc1cc(C)cc(N2C(=O)CC(n3ccnc3)C2=O)c1", "note": "(configuration not stated)", "Potency": "inconclusive: 16.4 µM [rising, partial curve]"}
{"smiles": "COc1cccc(CN2CCCN(S(=O)(=O)c3ccc(Br)cc3)CC2)c1", "Potency": "inconclusive: 29.1 µM [cytotoxic, single point]"}
{"smiles": "O=C(Nc1cccc(-c2cnc3ccccc3n2)c1)c1ccco1", "Potency": "inconclusive: 29.1 µM [cytotoxic, single point]"}
{"smiles": "CCc1ccc(OCC(=O)Nc2ccncc2)cc1", "Potency": "inactive"}
{"smiles": "Cc1cccc(OCCSc2ncnc3nc[nH]c23)c1", "Potency": "inconclusive: 32.6 µM [cytotoxic, single point]"}
{"smiles": "CCCc1cc(=O)[nH]c(SCC(=O)NC(=O)NC2CCCC2)n1", "Potency": "active: 4.11 µM"}
